Test results as given in PMC8944797, “Novel Antimicrobial Peptides Designed Using a Recurrent Neural Network Reduce Mortality in Experimental Sepsis” (Antibiotics, 2022).

Legend:
[1] = tested on: carbapenem-resistant isolates of Klebsiella aerogenes; conditions: median (first and third quartile) over n = 12 isolates; Mueller-Hinton broth, 37 °C, 18–20 h; range tested 0 to 32 μg/mL
Method: (§1) The strains of bacteria were isolated in 2021 from patients in the intensive care unit of the Stavropol State Regional Clinical Hospital. Identification and determination of antibiotic resistance of bacterial isolates were carried out using the disk diffusion method as part of a routine microbiological study in accordance with the European Committee on Antimicrobial Susceptibility Testing (EUCAST) protocols in the Department of Clinical Microbiology of the Center of Clinical Pharmacology and Pharmacotherapy.
(§2) The study of the antimicrobial activity of the synthesized peptides was performed by the standard broth dilution method according to the EUCAST guidelines. Briefly, pure bacterial cultures were cultured on a solid nutrient media (mannitol salt agar, BioMedia, Russia). From a fresh morning culture, we prepared a suspension in sterile saline corresponding to a McFarland turbidity standard of 0.5 (which is equivalent to 1–2 × 10^8 CFU/mL). The resulting suspension was dissolved in the BBL^TM Mueller-Hinton broth (Becton, Dickinson and Company, Franklin Lakes, NJ, USA) to obtain an inoculum with an approximate concentration of 5 × 10^5 CFU/mL. The inoculum (100 μL per well) was added to the wells of a sterile 96-well microtiter plate with a U-shaped bottom (Medpolymer, St. Petersburg, Russia). After that, serial two-fold dilutions of tested peptides (100 μL per well) were added to the wells. There were also sterility control wells (Mueller-Hinton broth only, without bacteria) and growth control wells (bacterial inoculum without peptides). Then, the plates were incubated in a thermostat at 37 °C. […] The MIC was taken as the minimum peptide concentration at which there was no visual growth in the corresponding well [26]. The peptides were dissolved in the Mueller–Hinton broth. The experiments with each peptide and bacterial isolate were performed in triplicate (in different plates). MIC values were calculated as median values of three independent replicates (calculations are presented in Supplementary Tables S1–S3).
(§3) Calculations of MICs (median, first, and third quartile) were performed in Microsoft Excel (Supplementary Tables S1–S3). Survival analysis by the Kaplan–Meier method and log-rank (Mantel–Cox) test was performed using GraphPad Prism version 9.2.0 for macOS (GraphPad Software, San Diego, CA, USA, www.graphpad.com, accessed on 29 January 2022).

[2] = tested on: carbapenem-resistant isolates of K. pneumoniae; conditions: median (first and third quartile) over n = 18 isolates; Mueller-Hinton broth, 37 °C, 18–20 h; range tested 0 to 32 μg/mL
Method: as §1, §2, §3

[3] = tested on: carbapenem-resistant isolates of Pseudomonas aeruginosa; conditions: median (first and third quartile) over n = 17 isolates; Mueller-Hinton broth, 37 °C, 18–20 h; range tested 0 to 32 μg/mL
Method: as §1, §2, §3

Row | Compound | MIC [1] | MIC [2] | MIC [3]
1 | CC[C@H](C)[C@H](NC(=O)[C@H](C)NC(=O)[C@H](CCCCN)NC(=O)[C@H](CCC(N)=O)NC(=O)[C@H](CO)NC(=O)[C@H](CC(N)=O)NC(=O)[C@H](C)NC(=O)[C@H](CC(C)C)NC(=O)[C@H](CCCCN)NC(=O)[C@H](Cc1c[nH]c2ccccc12)NC(=O)[C@H](CC(C)C)NC(=O)[C@H](CO)NC(=O)CNC(=O)[C@H](CC(C)C)NC(=O)[C@H](C)NC(=O)[C@H](CCCCN)NC(=O)[C@H](CCCCN)NC(=O)[C@@H](NC(=O)[C@H](Cc1c[nH]c2ccccc12)NC(=O)[C@H](CC(=O)O)NC(=O)[C@H](CCCCN)NC(=O)[C@H](CC(C)C)NC(=O)CN)C(C)C)C(=O)N[C@H](C(=O)N[C@@H](CO)C(=O)NCC(=O)N[C@@H](CCCCN)C(=O)N[C@@H](CCCCN)C(=O)N[C@@H](CO)C(=O)O)[C@@H](C)CC [PEP-38] | 6 (4–8) μg/mL | 8 (4–8) μg/mL | –
2 | CC[C@H](C)[C@H](NC(=O)[C@H](CCCCN)NC(=O)[C@H](CO)NC(=O)CNC(=O)[C@H](Cc1c[nH]cn1)NC(=O)[C@H](CCCCN)NC(=O)[C@H](CCCCN)NC(=O)[C@H](C)NC(=O)[C@H](Cc1ccccc1)NC(=O)[C@H](CCCCN)NC(=O)[C@H](CCCCN)NC(=O)[C@@H](NC(=O)[C@@H](NC(=O)[C@H](CCCCN)NC(=O)[C@H](Cc1ccccc1)NC(=O)CNC(=O)[C@H](Cc1ccccc1)NC(=O)[C@H](CCCCN)NC(=O)[C@H](C)NC(=O)[C@H](CC(C)C)NC(=O)[C@H](CCCCN)NC(=O)[C@H](CCCCN)NC(=O)[C@@H](NC(=O)[C@H](Cc1ccccc1)NC(=O)[C@H](CO)NC(=O)[C@H](CCCCN)NC(=O)[C@H](Cc1c[nH]c2ccccc12)NC(=O)[C@@H](N)CCCCN)[C@@H](C)CC)C(C)C)[C@@H](C)CC)C(=O)N[C@@H](C)C(=O)N[C@@H](CCCCN)C(=O)N[C@@H](CC(N)=O)C(=O)N[C@@H](CCC(N)=O)C(=O)O [PEP-137] | 2 (1–2.5) μg/mL | 2 (1–4) μg/mL | 2 (2–4) μg/mL
